{"source": "the supplement of paper PMC8728848", "experiment_in_all_cases": "glycan array binding signal (z-score within array); higher = stronger binding", "details_in_all_cases": "glycan notation: IUPAC condensed, linker removed", "key": {"[1]": {"molecular_target": "Neu5Ac(a2-6)Gal(b1-4)GlcNAc(b1-3)Gal(b1-4)GlcNAc(b1-3)Gal(b1-4)GlcNAc", "in_short": "(§1)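 Columns mapping to the same glycan were averaged after glycan names were converted to IUPAC-condensed notation. The data come from 3228 arrays in the Consortium for Functional Glycomics database, limited to those with an available protein sequence. Binding is reported as a within-array Z-score averaged across arrays of one protein sequence and across linkers.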"}, "[2]": {"molecular_target": "Neu5Ac(a2-6)Gal(b1-4)GlcNAc(b1-3)Gal(b1-4)GlcNAc(b1-3)Gal(b1-4)GlcNAc(b1-2)Man(a1-3)[Neu5Ac(a2-6)Gal(b1-4)GlcNAc(b1-3)Gal(b1-4)GlcNAc(b1-3)Gal(b1-4)GlcNAc(b1-2)Man(a1-6)]GalNAc", "in_short": "as §1"}, "[3]": {"molecular_target": "Neu5Ac(a2-6)Gal(b1-4)GlcNAc(b1-3)Gal(b1-4)GlcNAc(b1-3)GalNAc", "in_short": "as §1"}, "[4]": {"molecular_target": "Neu5Ac(a2-6)Gal(b1-4)GlcNAc(b1-3)Gal(b1-4)GlcNAc(b1-3)[Neu5Ac(a2-6)Gal(b1-4)GlcNAc(b1-3)Gal(b1-4)GlcNAc(b1-6)]GalNAc", "in_short": "as §1"}, "[5]": {"molecular_target": "Neu5Ac(a2-6)Gal(b1-4)GlcNAc(b1-3)Gal(b1-4)GlcNAc(b1-6)[Gal(b1-3)]GalNAc", "in_short": "as §1"}, "[6]": {"molecular_target": "Neu5Ac(a2-6)Gal(b1-4)GlcNAc(b1-3)Gal(b1-4)[Fuc(a1-3)]GlcNAc(b1-3)Gal(b1-4)[Fuc(a1-3)]GlcNAc", "in_short": "as §1"}, "[7]": {"molecular_target": "Neu5Ac(a2-6)Gal(b1-4)GlcNAc(b1-3)GalNAc", "in_short": "as §1"}, "[8]": {"molecular_target": "Neu5Ac(a2-6)Gal(b1-4)GlcNAc(b1-3)[Neu5Ac(a2-6)Gal(b1-4)GlcNAc(b1-6)]GalNAc", "in_short": "as §1"}, "[9]": {"molecular_target": "Neu5Ac(a2-6)Gal(b1-4)GlcNAc(b1-6)GalNAc", "in_short": "as §1"}, "[10]": {"molecular_target": "Neu5Ac(a2-6)Gal(b1-4)GlcNAc(b1-6)[Gal(b1-3)GlcNAc(b1-3)]Gal(b1-4)Glc", "in_short": "as §1"}, "[11]": {"molecular_target": "Neu5Ac(a2-6)Gal(b1-4)GlcNAc(b1-6)[Gal(b1-3)]GalNAc", "in_short": "as §1"}, "[12]": {"molecular_target": "Neu5Ac(a2-6)Gal(b1-4)GlcNAc6S", "in_short": "as §1"}, "Neu5Ac(a2-6)GalNAc": {"molecular_target": "Neu5Ac(a2-6)GalNAc", "in_short": "as §1"}, "[13]": {"molecular_target": "Neu5Ac(a2-6)GalNAc(b1-4)GlcNAc", "in_short": "as §1"}, "[14]": {"molecular_target": "Neu5Ac(a2-6)GalNAc(b1-4)GlcNAc6S", "in_short": "as §1"}, "[15]": {"molecular_target": "Neu5Ac(a2-6)GlcNAc(b1-4)GlcNAc", "in_short": "as §1"}, "[16]": {"molecular_target": "Neu5Ac(a2-6)GlcNAc(b1-4)GlcNAc(b1-4)GlcNAc", "in_short": "as §1"}, "Neu5Ac(a2-8)Neu5Ac": {"molecular_target": "Neu5Ac(a2-8)Neu5Ac", "in_short": "as §1"}, "[17]": {"molecular_target": "Neu5Ac(a2-8)Neu5Ac(a2-3)Gal(b1-3)GalNAc(b1-4)[Neu5Ac(a2-3)]Gal(b1-4)Glc", "in_short": "as §1"}, "[18]": {"molecular_target": "Neu5Ac(a2-8)Neu5Ac(a2-3)Gal(b1-3)GalNAc(b1-4)[Neu5Ac(a2-8)Neu5Ac(a2-3)]Gal(b1-4)Glc", "in_short": "as §1"}, "[19]": {"molecular_target": "Neu5Ac(a2-8)Neu5Ac(a2-3)Gal(b1-4)Glc", "in_short": "as §1"}, "[20]": {"molecular_target": "Neu5Ac(a2-8)Neu5Ac(a2-3)Gal(b1-4)GlcNAc", "in_short": "as §1"}, "[21]": {"molecular_target": "Neu5Ac(a2-8)Neu5Ac(a2-3)[Gal(b1-3)GalNAc(b1-4)]Gal(b1-4)Glc", "in_short": "as §1"}, "[22]": {"molecular_target": "Neu5Ac(a2-8)Neu5Ac(a2-3)[GalNAc(b1-4)]Gal(b1-4)Glc", "in_short": "as §1"}, "[23]": {"molecular_target": "Neu5Ac(a2-8)Neu5Ac(a2-8)Neu5Ac", "in_short": "as §1"}, "[24]": {"molecular_target": "Neu5Ac(a2-8)Neu5Ac(a2-8)Neu5Ac(a2-3)Gal(b1-4)Glc", "in_short": "as §1"}, "[25]": {"molecular_target": "Neu5Ac(a2-8)Neu5Ac(a2-8)Neu5Ac(a2-3)[Gal(b1-3)GalNAc(b1-4)]Gal(b1-4)Glc", "in_short": "as §1"}, "[26]": {"molecular_target": "Neu5Ac(a2-8)Neu5Ac(a2-8)Neu5Ac(a2-3)[GalNAc(b1-4)]Gal(b1-4)Glc", "in_short": "as §1"}, "[27]": {"molecular_target": "Neu5Ac(a2-8)Neu5Ac(a2-8)Neu5Ac(a2-8)Neu5Ac(a2-3)[GalNAc(b1-4)]Gal(b1-4)Glc", "in_short": "as §1"}, "[28]": {"molecular_target": "Neu5Ac(a2-8)Neu5Gc(a2-3)Gal(b1-4)GlcNAc", "in_short": "as §1"}, "[29]": {"molecular_target": "Neu5Ac(b2-6)Gal(b1-4)GlcNAc", "in_short": "as §1"}, "Neu5Ac(b2-6)GalNAc": {"molecular_target": "Neu5Ac(b2-6)GalNAc", "in_short": "as §1"}, "[30]": {"molecular_target": "Neu5Ac9Ac(a2-3)Gal(b1-3)GlcNAc", "in_short": "as §1"}, "[31]": {"molecular_target": "Neu5Ac9Ac(a2-3)Gal(b1-4)GlcNAc", "in_short": "as §1"}, "[32]": {"molecular_target": "Neu5Ac9Ac(a2-6)Gal(b1-4)GlcNAc", "in_short": "as §1"}, "[33]": {"molecular_target": "Neu5Gc(a2-3)Gal(b1-3)GlcNAc", "in_short": "as §1"}, "[34]": {"molecular_target": "Neu5Gc(a2-3)Gal(b1-3)[Fuc(a1-4)]GlcNAc", "in_short": "as §1"}, "Neu5Gc(a2-3)Gal(b1-4)Glc": {"molecular_target": "Neu5Gc(a2-3)Gal(b1-4)Glc", "in_short": "as §1"}, "[35]": {"molecular_target": "Neu5Gc(a2-3)Gal(b1-4)GlcNAc", "in_short": "as §1"}, "[36]": {"molecular_target": "Neu5Gc(a2-3)Gal(b1-4)GlcNAc(b1-3)Gal(b1-4)GlcNAc(b1-2)Man(a1-3)[Neu5Gc(a2-3)Gal(b1-4)GlcNAc(b1-3)Gal(b1-4)GlcNAc(b1-2)Man(a1-6)]Man(b1-4)GlcNAc(b1-4)GlcNAc", "in_short": "as §1"}, "[37]": {"molecular_target": "Neu5Gc(a2-3)Gal(b1-4)[Fuc(a1-3)]GlcNAc", "in_short": "as §1"}, "[38]": {"molecular_target": "Neu5Gc(a2-6)Gal(b1-4)GlcNAc", "in_short": "as §1"}, "Neu5Gc(a2-6)GalNAc": {"molecular_target": "Neu5Gc(a2-6)GalNAc", "in_short": "as §1"}, "[39]": {"molecular_target": "Neu5Gc(a2-8)Neu5Ac(a2-3)Gal(b1-4)GlcNAc", "in_short": "as §1"}, "[40]": {"molecular_target": "Neu5Gc(a2-8)Neu5Gc(a2-3)Gal(b1-4)GlcNAc", "in_short": "as §1"}}, "note": "This is one part of the list.", "data": [{"binder": "DCIR1 (Mus musculus), Q9QZ15 (protein) MASEITYAEVKFKNESNSLHTYSESPAAPREKPIRDLRKPGSPSLLLTSLMLLLLLLAITFLVAFIIYFQKYSQLLEEKKAAKNIMHNELNCTKSVSPMEDKVWSCCPKDWRLFGSHCYLVPTVSSSASWNKSEENCSRMGAHLVVIQSQEEQDFITGILDTHAAYFIGLWDTGHRQWQWVDQTPYEESITFWHNGEPSSGNEKCATIIYRWKTGWGWNDISCSLKQKSVCQMKKINL", "values": [{"measurement": "glycan array binding signal (z-score)", "setting": "[1]", "value": 0.176}, {"measurement": "glycan array binding signal (z-score)", "setting": "[2]", "value": 0.103}, {"measurement": "glycan array binding signal (z-score)", "setting": "[3]", "value": -0.959}, {"measurement": "glycan array binding signal (z-score)", "setting": "[4]", "value": 0.286}, {"measurement": "glycan array binding signal (z-score)", "setting": "[5]", "value": -0.3}, {"measurement": "glycan array binding signal (z-score)", "setting": "[6]", "value": -0.61}, {"measurement": "glycan array binding signal (z-score)", "setting": "[7]", "value": -0.193}, {"measurement": "glycan array binding signal (z-score)", "setting": "[8]", "value": -0.929}, {"measurement": "glycan array binding signal (z-score)", "setting": "[9]", "value": 0.358}, {"measurement": "glycan array binding signal (z-score)", "setting": "[10]", "value": -0.401}, {"measurement": "glycan array binding signal (z-score)", "setting": "[11]", "value": 0.357}, {"measurement": "glycan array binding signal (z-score)", "setting": "[12]", "value": 0.423}, {"measurement": "glycan array binding signal (z-score)", "setting": "Neu5Ac(a2-6)GalNAc", "value": 2.86}, {"measurement": "glycan array binding signal (z-score)", "setting": "[13]", "value": -0.517}, {"measurement": "glycan array binding signal (z-score)", "setting": "[14]", "value": -0.058}, {"measurement": "glycan array binding signal (z-score)", "setting": "[15]", "value": -0.374}, {"measurement": "glycan array binding signal (z-score)", "setting": "[16]", "value": -0.721}, {"measurement": "glycan array binding signal (z-score)", "setting": "Neu5Ac(a2-8)Neu5Ac", "value": -0.794}, {"measurement": "glycan array binding signal (z-score)", "setting": "[17]", "value": -0.936}, {"measurement": "glycan array binding signal (z-score)", "setting": "[18]", "value": -0.103}, {"measurement": "glycan array binding signal (z-score)", "setting": "[19]", "value": -0.987}, {"measurement": "glycan array binding signal (z-score)", "setting": "[20]", "value": -1.1}, {"measurement": "glycan array binding signal (z-score)", "setting": "[21]", "value": -0.632}, {"measurement": "glycan array binding signal (z-score)", "setting": "[22]", "value": -0.384}, {"measurement": "glycan array binding signal (z-score)", "setting": "[23]", "value": -0.793}, {"measurement": "glycan array binding signal (z-score)", "setting": "[24]", "value": 0.858}, {"measurement": "glycan array binding signal (z-score)", "setting": "[25]", "value": 2.88}, {"measurement": "glycan array binding signal (z-score)", "setting": "[26]", "value": -1.03}, {"measurement": "glycan array binding signal (z-score)", "setting": "[27]", "value": -0.794}, {"measurement": "glycan array binding signal (z-score)", "setting": "[28]", "value": -1}, {"measurement": "glycan array binding signal (z-score)", "setting": "[29]", "value": -0.642}, {"measurement": "glycan array binding signal (z-score)", "setting": "Neu5Ac(b2-6)GalNAc", "value": -0.75}, {"measurement": "glycan array binding signal (z-score)", "setting": "[30]", "value": 0.789}, {"measurement": "glycan array binding signal (z-score)", "setting": "[31]", "value": -0.173}, {"measurement": "glycan array binding signal (z-score)", "setting": "[32]", "value": -0.931}, {"measurement": "glycan array binding signal (z-score)", "setting": "[33]", "value": -0.558}, {"measurement": "glycan array binding signal (z-score)", "setting": "[34]", "value": 0.189}, {"measurement": "glycan array binding signal (z-score)", "setting": "Neu5Gc(a2-3)Gal(b1-4)Glc", "value": -0.47}, {"measurement": "glycan array binding signal (z-score)", "setting": "[35]", "value": -0.678}, {"measurement": "glycan array binding signal (z-score)", "setting": "[36]", "value": 0.353}, {"measurement": "glycan array binding signal (z-score)", "setting": "[37]", "value": 0.039}, {"measurement": "glycan array binding signal (z-score)", "setting": "[38]", "value": -0.428}, {"measurement": "glycan array binding signal (z-score)", "setting": "Neu5Gc(a2-6)GalNAc", "value": -0.77}, {"measurement": "glycan array binding signal (z-score)", "setting": "[39]", "value": -1.04}, {"measurement": "glycan array binding signal (z-score)", "setting": "[40]", "value": -0.65}]}]}
